# In PubChem BioAssay AID493014 (National Center for Advancing Translational Sciences (NCATS), 2011):
# Screen size: about 340,000 compounds; about 170 (0.05%) were called active. The inconclusive results got no clear call from the source; some entries with a clear call stand among them for comparison. Calls come from the whole dose curve; as a rule, active = well fitted inhibition curve with a large enough effect in the signal ratio, with a control signal flat (not every such curve was filed as active); inconclusive = small, poorly fitted or top-dose-only effect, or effect the other way, or a change in a side signal; inactive = flat fitted curve, though single readings scatter; the % refers to the signal ratio. Where the call is inconclusive, the potency comes from a doubtful curve fit.
# Test: qHTS Assay to Find Inhibitors of Chronic Active B-Cell Receptor Signaling;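 for activity change, negative = inhibition: plate controls were basal doxycycline-induced cells for no effect and cells given 10 µM MG132 for full effect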
# Conditions: ABC-DLBCL IkBa-CBG/CBR reporter, luminescence ratio (green luciferase fused to IkBa over red control in TMD8 lymphoma cells), 4 h; activity change, negative = inhibition: at 46.1 µM (top of the series)
# Procedure, shortened: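 Doxycycline induced both beetle luciferases in TMD8 lymphoma cells; IKK-driven degradation limits the IkappaBalpha-fused green signal, while red luminescence normalises for cell number and nonspecific effects. Compounds tested up to 46 uM, 4 hrs.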
# Potency is the fitted concentration of half-maximal effect.
SMILES,"activity change, negative = inhibition",Potency
CN(CC(=O)Nc1ccc(Br)cc1)Cc1ccccc1,inconclusive: 2.43%,–
c1ccc(-c2ccc(-c3nc(-c4ccncc4)no3)cc2)cc1,inconclusive: 6.55%,–
CC(C)(C)C(=O)Cn1ncc(N2CCOCC2)c(Br)c1=O,inactive: 0.547%,–
COC(=O)c1ccc(CSc2nncn2C)cc1,inconclusive: -19.3%,–
Cc1ccc(C)c(OCC(=O)Nc2cccc(S(=O)(=O)NC3=NCCCCC3)c2)c1,inconclusive: 2.8%,–
Cc1ccc(C(=O)NC(C#N)=C(Cl)Cl)cc1,inconclusive: 3.93%,–
Cc1nc2cc(-c3ccc(Cl)cc3)nn2c(C)c1CCC(=O)NC(C)c1ccc2c(c1)OCCO2 (stereo not drawn),–,"inconclusive: 23.1 µM [falling, partial curve]"
O=C1CCCCC1C(O)c1ccc(Cl)cc1 (stereo not drawn),inactive: 4.05%,–
O=C(c1cc2c(ccc3ccccc32)o1)N1CCCCC1,–,"inconclusive: 25.1 µM [falling, single point]"
CC1CN(C(=O)c2ccc3c(c2)OCO3)OC(c2ccccc2)O1 (stereo not drawn),–,"inconclusive: 3.98 µM [rising, partial curve, poor fit]"
Cn1cccc1/C=N/NC(=O)c1ccccn1,–,"inconclusive: 35.5 µM [falling, single point]"
CCCCOc1cccc(C(=O)N(Cc2ccccc2)C2CCS(=O)(=O)C2)c1 (stereo not drawn),inactive: 4.51%,–
Cc1nn(C)c(C)c1NC(=O)CSc1nc(-c2ccccc2Cl)nc2c1cnn2-c1ccccc1,inconclusive: -15.4%,–
Cc1ccc2[nH]c3c(=O)n(N)c(C)nc3c2c1,inactive: -0.632%,–
O=C(/C=C/c1ccccc1)N1CCC(c2ccccc2)C1 (stereo not drawn),–,"inconclusive: 5.17 µM [falling, partial curve]"
Cc1cc(NC(=O)CSc2cc(Cl)ccc2Cl)n(-c2ccccc2)n1,inactive: -20.9%,–
O=C(Nc1ccc(C(F)(F)F)cc1)c1ccccc1,–,"inconclusive: 18.4 µM [falling, partial curve, poor fit]"
Cc1ccc(NC(=O)CSc2nnnn2-c2ccc3c(c2)OCO3)cc1C,inconclusive: -7.78%,–
COc1cccc(C(=O)NCc2ccc3c(c2)CCN3C(=O)c2ccncc2)c1,–,"inconclusive: 12.6 µM [falling, partial curve, poor fit]"
N#Cc1ccc(/C=N/N=C(N)N)cc1,inconclusive: -9.71%,–
COc1ccc(S(=O)(=O)N2CCCCCC2)cc1C(=O)N(C)CC(=O)Nc1ccc(F)cc1,inconclusive: -19.6%,–
CCOC(=O)Cc1csc(NC(=O)c2cccc(OC)c2)n1,–,"inconclusive: 20.6 µM [falling, partial curve]"
O=C1/C(=C\c2cccc(O)c2)SC(=S)N1Cc1ccccc1,inactive: 5.99%,–
CSc1ccccc1OCc1cc(C(=O)NCc2ccc(C)s2)no1,inconclusive: -18%,–
COc1cc(S(=O)(=O)NCCOC23CC4CC(CC(C4)C2)C3)c(OC)cc1Cl,inactive: 4.53%,–
N#Cc1c(/N=C/c2ccc(Br)s2)sc2c1CCC2,inconclusive: 11.6%,–
Cc1ccc(CNC(=O)CC2(CC3=NS(=O)(=O)c4ccccc4N3)CCCC2)cc1,inconclusive: 6.15%,–

# Quoted from the listing, 2 compounds:
SMILES,"activity change, negative = inhibition",Potency
CC(C)(C)C(=O)Cn1ncc(N2CCOCC2)c(Br)c1=O,inactive: 0.547%,–
COC(=O)c1ccc(CSc2nncn2C)cc1,inconclusive: -19.3%,–

# Additional compounds follow:

SMILES,"activity change, negative = inhibition",Potency
COc1ccccc1C/C(N)=N/OC(=O)c1cccc([N+](=O)[O-])c1,inconclusive: 7.25%,–
CCc1noc(C)c1C(=O)Nc1nc(-c2cc(OC)ccc2OC)cs1,inconclusive: 0.232%,–
Cc1ccc(C)c(NC(=S)c2nc3ccccc3s2)c1,inactive: -0.484%,–
CCOC(=O)C1CCCN(C(=O)c2cc3nc(-c4ccc5c(c4)OCO5)cc(C(F)(F)F)n3n2)C1 (stereo not drawn),inactive: 3.2%,–
Cc1cccc(NC(=S)NC(=O)CC2CC(C)(C)OC2=O)c1 (stereo not drawn),inconclusive: -6.98%,–
COc1ccc(-n2nc(C(=O)NCC(=O)N3CCN(c4ccccc4)CC3)c3ccccc3c2=O)c(OC)c1,inactive: 1.4%,–
O=C(CCNC(=O)c1ccccc1Cl)Nc1nc2ccc(F)cc2s1,inconclusive: -7.26%,–
O=C(NCCO)NC(=S)c1ccccc1,–,"inconclusive: 4.61 µM [falling, partial curve, poor fit]"
S=c1[nH]nc(C2CCCCC2)n1/N=C/c1ccccc1Cl,inconclusive: 2.28%,–
COCCNC(=S)N=Nc1c(O)[nH]c2c(C)cc(C)cc12,inactive: 12%,–
Cc1ccc(C(=O)c2cc([N+](=O)[O-])ccc2N2CC(C)OC(C)C2)cc1 (stereo not drawn),inconclusive: 1.97%,–
Nc1nc(-c2c[nH]c3ccccc23)cs1,–,"inconclusive: 2.91 µM [falling, partial curve, poor fit]"
CN(Cc1ccccc1)C(=S)NC(=O)c1ccc(-c2ccccc2)cc1,inconclusive: 3.49%,–
COc1cc(C2C(C#N)=C(N)N(Nc3ccccc3)C3=C2C(=O)CC(C)(C)C3)ccc1OCc1ccccc1 (stereo not drawn),inconclusive: 11.6%,–
COc1ccc(Br)cc1C(=O)Nc1ccccc1-c1ccccc1,inconclusive: 19.6%,–
COc1ccc(N2CC(C(=O)Nc3ccccc3C(=O)NC3CC3)CC2=O)cc1 (stereo not drawn),inconclusive: 2.24%,–
CCc1ccc(C(=O)N/N=C/c2ccc(Cl)cc2Cl)nc1,inconclusive: 0%,–
O=C(c1ccc(N2CCOCC2)cc1)c1cccs1,–,"inconclusive: 23.1 µM [falling, partial curve]"
CC(C)CNS(=O)(=O)c1ccc(CCC(=O)N2CCN(Cc3ccc4c(c3)OCO4)CC2)cc1,inconclusive: -22.1%,–
O=[N+]([O-])c1ccc(/C=N/N2CCCCC2)cc1,inactive: 0.403%,–
O=C(Nc1ccc(-c2noc(COc3ccccc3Cl)n2)cc1)c1ccco1,inconclusive: 0.0101%,–
COc1cc(OC)cc(OC(=O)C2CCN(C(=O)c3ccc(F)cc3)CC2)c1,–,"inconclusive: 2.59 µM [falling, partial curve, poor fit]"
CC(/C=N/Nc1ncc(C)c(=O)[nH]1)=C\c1ccccc1,inconclusive: 0.267%,–
Nc1ccccc1SSc1ccccc1N,–,"inconclusive: 28.2 µM [falling, partial curve, poor fit]"
CCc1nnc(NC(=O)c2nc(S(=O)(=O)Cc3ccc(C)cc3)ncc2Cl)s1,inconclusive: 15.6%,–
Cn1nnnc1SCC(=O)Nc1ncc(C(F)(F)F)cc1Cl,inconclusive: 4.14%,–
